# Reference: the supplement of paper PMC12067093, “Discovery and optimisation of a covalent ligand for TRIM25 and its application to targeted protein ubiquitination” (Chemical Science, 2025)
# Chains of the proteins cited; added tags and fusions are not shown. Lines headed by an entry give the natural chain unless they say otherwise; changes in a name come on top.
# UniProt Q99836, whole entry, looked up: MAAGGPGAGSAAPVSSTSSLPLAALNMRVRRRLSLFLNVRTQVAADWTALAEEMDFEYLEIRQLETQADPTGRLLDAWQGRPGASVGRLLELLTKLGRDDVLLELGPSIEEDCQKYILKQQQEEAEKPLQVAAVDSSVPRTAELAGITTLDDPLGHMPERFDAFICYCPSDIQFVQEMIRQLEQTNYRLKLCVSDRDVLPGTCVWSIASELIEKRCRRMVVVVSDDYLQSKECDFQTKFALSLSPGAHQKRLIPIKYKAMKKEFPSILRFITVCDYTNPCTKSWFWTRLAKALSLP
# UniProt P11586, whole entry, looked up: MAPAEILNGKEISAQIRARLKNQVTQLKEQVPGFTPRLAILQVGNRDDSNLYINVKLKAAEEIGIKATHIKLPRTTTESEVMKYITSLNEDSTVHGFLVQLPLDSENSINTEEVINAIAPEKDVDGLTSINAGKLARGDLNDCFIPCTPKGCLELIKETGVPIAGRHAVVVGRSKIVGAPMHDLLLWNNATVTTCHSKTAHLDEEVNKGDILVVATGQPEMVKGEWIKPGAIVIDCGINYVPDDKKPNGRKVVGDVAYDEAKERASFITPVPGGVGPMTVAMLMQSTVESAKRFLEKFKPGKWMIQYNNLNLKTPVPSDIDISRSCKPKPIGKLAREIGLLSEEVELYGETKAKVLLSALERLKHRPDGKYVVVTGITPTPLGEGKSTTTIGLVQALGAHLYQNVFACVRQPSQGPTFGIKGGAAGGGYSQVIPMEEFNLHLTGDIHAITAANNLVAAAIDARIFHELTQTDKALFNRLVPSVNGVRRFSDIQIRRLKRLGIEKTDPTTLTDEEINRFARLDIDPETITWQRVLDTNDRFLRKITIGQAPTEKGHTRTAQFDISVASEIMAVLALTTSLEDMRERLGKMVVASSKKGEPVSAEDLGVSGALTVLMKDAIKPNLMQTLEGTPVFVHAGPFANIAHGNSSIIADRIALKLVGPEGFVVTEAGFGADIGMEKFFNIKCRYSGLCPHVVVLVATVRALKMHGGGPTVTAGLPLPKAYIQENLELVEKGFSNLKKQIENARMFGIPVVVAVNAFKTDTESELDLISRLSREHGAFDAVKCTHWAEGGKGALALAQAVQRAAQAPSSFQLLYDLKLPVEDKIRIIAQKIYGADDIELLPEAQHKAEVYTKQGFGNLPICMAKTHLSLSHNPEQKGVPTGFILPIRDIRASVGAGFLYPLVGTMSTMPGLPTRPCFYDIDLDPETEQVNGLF
# UniProt O75570: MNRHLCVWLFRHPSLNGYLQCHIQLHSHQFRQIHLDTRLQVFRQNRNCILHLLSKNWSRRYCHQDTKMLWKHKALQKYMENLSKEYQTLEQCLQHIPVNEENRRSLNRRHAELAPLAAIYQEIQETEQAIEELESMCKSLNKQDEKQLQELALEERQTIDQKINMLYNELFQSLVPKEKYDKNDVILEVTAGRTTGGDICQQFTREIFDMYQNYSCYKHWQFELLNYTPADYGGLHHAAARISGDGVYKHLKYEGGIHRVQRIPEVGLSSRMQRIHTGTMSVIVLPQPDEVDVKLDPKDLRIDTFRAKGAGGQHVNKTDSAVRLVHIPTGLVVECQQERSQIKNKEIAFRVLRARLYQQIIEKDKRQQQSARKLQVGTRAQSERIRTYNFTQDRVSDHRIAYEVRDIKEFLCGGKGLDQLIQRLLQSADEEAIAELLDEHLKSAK
# UniProt P10244: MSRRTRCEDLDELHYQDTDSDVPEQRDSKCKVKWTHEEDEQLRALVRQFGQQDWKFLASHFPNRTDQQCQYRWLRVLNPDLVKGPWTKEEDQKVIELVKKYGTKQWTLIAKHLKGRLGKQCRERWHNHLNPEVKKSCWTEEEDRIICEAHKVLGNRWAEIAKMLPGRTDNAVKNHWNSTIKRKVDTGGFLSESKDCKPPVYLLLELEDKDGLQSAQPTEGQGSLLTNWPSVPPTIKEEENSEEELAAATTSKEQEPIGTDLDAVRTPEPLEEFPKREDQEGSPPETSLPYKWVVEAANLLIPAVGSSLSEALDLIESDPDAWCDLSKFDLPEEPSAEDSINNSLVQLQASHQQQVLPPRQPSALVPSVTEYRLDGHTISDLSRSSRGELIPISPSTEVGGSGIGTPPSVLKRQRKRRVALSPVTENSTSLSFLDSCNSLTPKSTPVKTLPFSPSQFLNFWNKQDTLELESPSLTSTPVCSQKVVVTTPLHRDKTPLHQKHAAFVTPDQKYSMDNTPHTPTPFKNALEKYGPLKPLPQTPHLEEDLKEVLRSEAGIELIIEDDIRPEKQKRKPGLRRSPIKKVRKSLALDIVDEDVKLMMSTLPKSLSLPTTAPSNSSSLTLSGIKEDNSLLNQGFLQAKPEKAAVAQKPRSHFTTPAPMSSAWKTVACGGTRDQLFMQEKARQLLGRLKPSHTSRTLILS
# UniProt Q13615: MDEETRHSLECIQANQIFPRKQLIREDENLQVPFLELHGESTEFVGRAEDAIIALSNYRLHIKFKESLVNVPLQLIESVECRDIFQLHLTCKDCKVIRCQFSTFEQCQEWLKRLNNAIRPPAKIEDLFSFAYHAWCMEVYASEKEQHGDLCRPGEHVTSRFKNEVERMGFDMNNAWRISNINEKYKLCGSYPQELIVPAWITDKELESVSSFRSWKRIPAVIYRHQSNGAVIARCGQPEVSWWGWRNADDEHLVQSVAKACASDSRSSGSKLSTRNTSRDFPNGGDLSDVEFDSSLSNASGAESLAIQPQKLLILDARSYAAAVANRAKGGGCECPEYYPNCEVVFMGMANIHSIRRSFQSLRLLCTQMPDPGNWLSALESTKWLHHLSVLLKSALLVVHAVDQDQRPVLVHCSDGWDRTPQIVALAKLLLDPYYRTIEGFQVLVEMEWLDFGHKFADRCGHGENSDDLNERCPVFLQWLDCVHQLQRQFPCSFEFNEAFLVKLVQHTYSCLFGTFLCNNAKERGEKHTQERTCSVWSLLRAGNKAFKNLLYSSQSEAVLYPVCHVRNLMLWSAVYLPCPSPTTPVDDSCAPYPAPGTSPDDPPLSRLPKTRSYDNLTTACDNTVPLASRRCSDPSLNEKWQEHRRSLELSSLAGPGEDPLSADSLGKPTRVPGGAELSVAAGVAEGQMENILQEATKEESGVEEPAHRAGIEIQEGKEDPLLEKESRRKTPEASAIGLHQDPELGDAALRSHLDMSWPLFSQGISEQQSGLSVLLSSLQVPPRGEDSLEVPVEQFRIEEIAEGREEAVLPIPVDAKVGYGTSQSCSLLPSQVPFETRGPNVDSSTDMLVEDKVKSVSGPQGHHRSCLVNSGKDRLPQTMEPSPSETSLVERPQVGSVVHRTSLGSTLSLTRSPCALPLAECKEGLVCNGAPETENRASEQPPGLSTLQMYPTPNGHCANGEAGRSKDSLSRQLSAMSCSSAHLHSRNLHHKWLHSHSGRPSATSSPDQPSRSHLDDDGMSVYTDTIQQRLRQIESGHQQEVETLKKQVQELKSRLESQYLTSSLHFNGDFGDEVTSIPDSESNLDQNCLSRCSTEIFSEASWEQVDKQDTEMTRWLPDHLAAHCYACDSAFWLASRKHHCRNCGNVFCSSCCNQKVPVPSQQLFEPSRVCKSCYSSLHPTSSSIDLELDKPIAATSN
# UniProt P58546, whole entry, looked up: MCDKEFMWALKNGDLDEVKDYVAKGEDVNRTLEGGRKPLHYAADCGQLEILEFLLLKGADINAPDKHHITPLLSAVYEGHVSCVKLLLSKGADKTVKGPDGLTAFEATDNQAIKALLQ
# UniProt P53602: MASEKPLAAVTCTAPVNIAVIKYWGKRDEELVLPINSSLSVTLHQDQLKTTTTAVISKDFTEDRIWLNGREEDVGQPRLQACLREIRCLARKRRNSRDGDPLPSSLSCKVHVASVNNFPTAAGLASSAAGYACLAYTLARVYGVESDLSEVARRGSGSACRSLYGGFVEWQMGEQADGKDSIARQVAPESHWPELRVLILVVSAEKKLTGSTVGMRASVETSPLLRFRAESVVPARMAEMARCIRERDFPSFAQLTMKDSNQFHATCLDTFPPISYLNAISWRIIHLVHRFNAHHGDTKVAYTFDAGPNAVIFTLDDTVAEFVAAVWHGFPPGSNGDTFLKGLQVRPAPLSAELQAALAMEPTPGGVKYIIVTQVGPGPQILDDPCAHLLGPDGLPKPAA
# UniProt P50539: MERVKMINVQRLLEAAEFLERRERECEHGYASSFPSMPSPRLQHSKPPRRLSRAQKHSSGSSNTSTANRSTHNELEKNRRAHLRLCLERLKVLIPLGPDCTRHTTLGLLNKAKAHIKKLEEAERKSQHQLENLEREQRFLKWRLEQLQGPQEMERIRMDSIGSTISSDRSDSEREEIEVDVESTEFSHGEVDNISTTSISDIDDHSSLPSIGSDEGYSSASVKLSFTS
# UniProt Q9Y6C9: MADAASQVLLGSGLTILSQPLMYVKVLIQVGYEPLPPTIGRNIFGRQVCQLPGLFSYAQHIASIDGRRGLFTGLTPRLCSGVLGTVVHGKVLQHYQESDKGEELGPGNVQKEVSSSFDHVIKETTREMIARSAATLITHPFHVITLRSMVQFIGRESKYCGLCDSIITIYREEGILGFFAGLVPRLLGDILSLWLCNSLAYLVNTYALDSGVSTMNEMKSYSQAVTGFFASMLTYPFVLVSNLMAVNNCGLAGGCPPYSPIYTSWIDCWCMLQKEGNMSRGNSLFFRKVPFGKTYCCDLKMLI
# UniProt P35579, whole entry, looked up: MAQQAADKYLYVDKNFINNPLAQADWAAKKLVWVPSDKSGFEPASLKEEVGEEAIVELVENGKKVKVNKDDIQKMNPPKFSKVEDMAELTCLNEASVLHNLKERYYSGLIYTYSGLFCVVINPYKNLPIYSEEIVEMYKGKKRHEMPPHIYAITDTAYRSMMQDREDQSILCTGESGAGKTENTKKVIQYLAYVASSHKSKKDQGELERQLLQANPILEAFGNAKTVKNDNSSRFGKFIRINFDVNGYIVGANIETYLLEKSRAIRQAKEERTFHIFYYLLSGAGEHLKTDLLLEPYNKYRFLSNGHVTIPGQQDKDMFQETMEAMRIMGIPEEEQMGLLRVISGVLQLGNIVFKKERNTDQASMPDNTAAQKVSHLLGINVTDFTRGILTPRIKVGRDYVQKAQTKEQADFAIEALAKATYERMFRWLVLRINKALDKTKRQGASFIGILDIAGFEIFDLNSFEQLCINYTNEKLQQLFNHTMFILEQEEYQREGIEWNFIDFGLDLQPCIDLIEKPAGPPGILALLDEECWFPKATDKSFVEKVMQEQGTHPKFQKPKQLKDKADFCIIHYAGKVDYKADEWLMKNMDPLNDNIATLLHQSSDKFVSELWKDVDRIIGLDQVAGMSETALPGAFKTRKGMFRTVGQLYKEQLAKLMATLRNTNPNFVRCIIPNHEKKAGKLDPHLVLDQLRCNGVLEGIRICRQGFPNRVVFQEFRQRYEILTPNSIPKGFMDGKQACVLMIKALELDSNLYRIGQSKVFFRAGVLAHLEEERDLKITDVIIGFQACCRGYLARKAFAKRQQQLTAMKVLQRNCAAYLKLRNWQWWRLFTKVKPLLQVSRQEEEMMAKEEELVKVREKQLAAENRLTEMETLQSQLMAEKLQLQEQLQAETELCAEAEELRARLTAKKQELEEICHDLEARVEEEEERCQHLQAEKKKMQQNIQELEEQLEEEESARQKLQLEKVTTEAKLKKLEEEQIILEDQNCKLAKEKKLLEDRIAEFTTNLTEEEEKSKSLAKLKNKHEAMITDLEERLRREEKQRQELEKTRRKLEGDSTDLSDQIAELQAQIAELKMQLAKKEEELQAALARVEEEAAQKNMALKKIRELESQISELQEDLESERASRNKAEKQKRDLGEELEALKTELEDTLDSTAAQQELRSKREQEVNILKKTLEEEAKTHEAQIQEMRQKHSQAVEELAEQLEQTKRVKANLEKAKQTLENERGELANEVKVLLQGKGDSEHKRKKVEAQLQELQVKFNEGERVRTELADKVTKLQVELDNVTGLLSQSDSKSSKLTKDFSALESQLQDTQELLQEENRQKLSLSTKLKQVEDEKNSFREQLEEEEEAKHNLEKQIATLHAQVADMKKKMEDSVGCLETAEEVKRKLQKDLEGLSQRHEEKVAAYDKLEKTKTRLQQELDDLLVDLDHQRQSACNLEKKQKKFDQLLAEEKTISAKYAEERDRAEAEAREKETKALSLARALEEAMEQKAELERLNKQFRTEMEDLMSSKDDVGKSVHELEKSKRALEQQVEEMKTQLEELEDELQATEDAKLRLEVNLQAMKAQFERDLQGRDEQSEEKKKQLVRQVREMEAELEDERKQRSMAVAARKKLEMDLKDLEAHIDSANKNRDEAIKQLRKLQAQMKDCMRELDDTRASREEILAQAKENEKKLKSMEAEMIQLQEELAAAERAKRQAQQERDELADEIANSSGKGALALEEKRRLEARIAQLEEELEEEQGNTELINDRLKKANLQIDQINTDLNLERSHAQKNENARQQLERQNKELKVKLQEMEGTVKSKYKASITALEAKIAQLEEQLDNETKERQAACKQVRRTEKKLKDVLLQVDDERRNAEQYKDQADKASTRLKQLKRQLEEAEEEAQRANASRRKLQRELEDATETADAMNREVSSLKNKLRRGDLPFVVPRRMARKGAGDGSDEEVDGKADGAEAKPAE
# The list shows a part of the results.
# Compound: CC1Cc2ccccc2N1C(=O)C1CCCN(C1)C(=O)CCl (mixture of isomers) [TRIM25 ligand 11 (diastereomer mixture)]
# Test: probe-labelled cysteine peptide fold change vs DMSO (competition) (log2 fold change); higher = less target engagement (more negative = stronger competition)
# Conditions: 10 µM; THP-1; incubation time: 4 h
# 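Note: competitive chemoproteomic profiling in live THP-1 cells with an iodoacetamide desthiobiotin (IA-DTB) probe, comparing probe-labelled peptide intensities in compound-treated cells against DMSO-treated controls.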
row,Target,probe-labelled cysteine peptide fold change
1,MYCBP2_O75592_2569+2570_DINSCCPQEATMQEQDMPFLR (UniProt O75592),0.0437
2,MTOR_P42345_1214_YDVLICR (UniProt P42345),-0.0375
3,MTHFD1L_Q6UB35_906_IDRYTQQGFGNLPICMAK (UniProt Q6UB35),-0.0975
4,MYD88_Q99836_168_FDAFICYCPSDIQFVQEMIR (UniProt Q99836),-0.0867
5,MYBBP1A_Q9BQG0_623_SPAESCDLLGDIQTCIR (UniProt Q9BQG0),0.0659
6,MRPS7_Q9Y2R9_152_NCEPMIGLVPILK (UniProt Q9Y2R9),-0.00514
7,MTHFD1_P11586_863_QGFGNLPICMAK (UniProt P11586),-0.00775
8,MSH6_P52701_406_RPDHPDFDASTLYVPEDFLNSCTPGMR (UniProt P52701),0.154
9,MTRF1_O75570_200_TTGGDICQQFTR (UniProt O75570),0.041
10,MRPS18A_Q9NVS2_108_ITGLCQEEHR (UniProt Q9NVS2),-0.0526
11,MYBL2_P10244_147_SCWTEEEDRIICEAHK (UniProt P10244),-0.107
12,MTREX_P42285_399_DCEAYALQMTK (UniProt P42285),-0.0173
13,MTX2_O75431_189_TLDQVLEDVDQCCQALSQR (UniProt O75431),-0.297
14,MRTO4_Q9UKD2_176_GVVTLLSDYEVCK (UniProt Q9UKD2),0.0418
15,MRPS16_Q9Y3D3_26_LALGGCTNRPFYR (UniProt Q9Y3D3),-0.227
16,MRPS28_Q9Y2Q9_122+124_FHCVCR (UniProt Q9Y2Q9),-0.112
17,MTHFS_P49914_160_CLQHQEVKPYTLALAFK (UniProt P49914),-0.136
18,MTMR3_Q13615_473_CPVFLQWLDCVHQLQR (UniProt Q13615),0.0489

row,Target,probe-labelled cysteine peptide fold change
1,MYCBP2_O75592_4318_VDLHEGCGR (UniProt O75592),0.246
2,MYBBP1A_Q9BQG0_614+623_SPAESCDLLGDIQTCIR (UniProt Q9BQG0),-0.339
3,MUT_P22033_471_IEECAAR (UniProt P22033),0.228
4,MTF2_Q9Y483_133_CGQGYHQLCHTPHIDSSVIDSDEK (UniProt Q9Y483),0.12
5,MTPN_P58546_45_TLEGGRKPLHYAADCGQLEILEFLLLK (UniProt P58546),-0.357
6,MRPS31_Q92665_356_HFMELVTCGLSK (UniProt Q92665),-0.00441
7,MTMR2_Q13614_155_GENSYGLETVCK (UniProt Q13614),0.0206
8,MVD_P53602_108_DGDPLPSSLSCK (UniProt P53602),-0.000184
9,MSH6_P52701_559_AYGVCFVDTSLGK (UniProt P52701),0.0341
10,MXI1_P50539_100_LKVLIPLGPDCTR (UniProt P50539),-0.0602
11,MTMR1_Q13613_258_INSNYEFCDTYPAIIVVPTSVK (UniProt Q13613),-0.063
12,MTCH2_Q9Y6C9_79_LCSGVLGTVVHGK (UniProt Q9Y6C9),0.0436
13,MYBBP1A_Q9BQG0_890_RYCHDLGER (UniProt Q9BQG0),-0.034
14,MYH9_P35579_671_CIIPNHEKK (UniProt P35579),-0.608
15,MYH9_P35579_172_SMMQDREDQSILCTGESGAGK (UniProt P35579),-0.0983
16,MSH6_P52701_765_VDTCHTPFGK (UniProt P52701),0.0647
17,MTX2_O75431_246_NYSNLLAFCR (UniProt O75431),-0.0643

# Same assay, conditions: 50 µM; THP-1; incubation time: 4 h
row,Target,probe-labelled cysteine peptide fold change
1,MYCBP2_O75592_2569+2570_DINSCCPQEATMQEQDMPFLR (UniProt O75592),-0.504
2,MTOR_P42345_1214_YDVLICR (UniProt P42345),0.251
3,MTHFD1L_Q6UB35_906_IDRYTQQGFGNLPICMAK (UniProt Q6UB35),-0.217
4,MYD88_Q99836_168_FDAFICYCPSDIQFVQEMIR (UniProt Q99836),0.111
5,MYBBP1A_Q9BQG0_623_SPAESCDLLGDIQTCIR (UniProt Q9BQG0),0.226
6,MRPS7_Q9Y2R9_152_NCEPMIGLVPILK (UniProt Q9Y2R9),0.0373
7,MTHFD1_P11586_863_QGFGNLPICMAK (UniProt P11586),-0.195
8,MSH6_P52701_406_RPDHPDFDASTLYVPEDFLNSCTPGMR (UniProt P52701),0.165
9,MTRF1_O75570_200_TTGGDICQQFTR (UniProt O75570),-0.0145
10,MRPS18A_Q9NVS2_108_ITGLCQEEHR (UniProt Q9NVS2),-0.0578
11,MYBL2_P10244_147_SCWTEEEDRIICEAHK (UniProt P10244),0.0609
12,MTREX_P42285_399_DCEAYALQMTK (UniProt P42285),0.124
13,MTX2_O75431_189_TLDQVLEDVDQCCQALSQR (UniProt O75431),0.14
14,MRTO4_Q9UKD2_176_GVVTLLSDYEVCK (UniProt Q9UKD2),-0.0161
15,MRPS16_Q9Y3D3_26_LALGGCTNRPFYR (UniProt Q9Y3D3),-0.0358
16,MRPS28_Q9Y2Q9_122+124_FHCVCR (UniProt Q9Y2Q9),-0.0144
17,MTHFS_P49914_160_CLQHQEVKPYTLALAFK (UniProt P49914),-0.147
18,MTMR3_Q13615_473_CPVFLQWLDCVHQLQR (UniProt Q13615),0.151

row,Target,probe-labelled cysteine peptide fold change
1,MYCBP2_O75592_4318_VDLHEGCGR (UniProt O75592),0.0775
2,MYBBP1A_Q9BQG0_614+623_SPAESCDLLGDIQTCIR (UniProt Q9BQG0),-0.434
3,MUT_P22033_471_IEECAAR (UniProt P22033),-0.104
4,MTF2_Q9Y483_133_CGQGYHQLCHTPHIDSSVIDSDEK (UniProt Q9Y483),0.228
5,MTPN_P58546_45_TLEGGRKPLHYAADCGQLEILEFLLLK (UniProt P58546),-0.542
6,MRPS31_Q92665_356_HFMELVTCGLSK (UniProt Q92665),-0.00908
7,MTMR2_Q13614_155_GENSYGLETVCK (UniProt Q13614),-0.109
8,MVD_P53602_108_DGDPLPSSLSCK (UniProt P53602),-0.0426
9,MSH6_P52701_559_AYGVCFVDTSLGK (UniProt P52701),0.091
10,MXI1_P50539_100_LKVLIPLGPDCTR (UniProt P50539),-0.152
11,MTMR1_Q13613_258_INSNYEFCDTYPAIIVVPTSVK (UniProt Q13613),-0.0241
12,MTCH2_Q9Y6C9_79_LCSGVLGTVVHGK (UniProt Q9Y6C9),-0.0296
13,MYBBP1A_Q9BQG0_890_RYCHDLGER (UniProt Q9BQG0),0.0213
14,MYH9_P35579_671_CIIPNHEKK (UniProt P35579),-0.373
15,MYH9_P35579_172_SMMQDREDQSILCTGESGAGK (UniProt P35579),-0.269
16,MSH6_P52701_765_VDTCHTPFGK (UniProt P52701),0.104
17,MTX2_O75431_246_NYSNLLAFCR (UniProt O75431),-0.00642
